Measured values as given in the supplement of paper PMC10849652.
This is one part of the list.

By UniProt entry, the sequences of proteins in these tests, tags left out. Where a name states a change or a piece, a line headed by the entry shows the natural chain unless it says otherwise.
UniProt Q8N2I9: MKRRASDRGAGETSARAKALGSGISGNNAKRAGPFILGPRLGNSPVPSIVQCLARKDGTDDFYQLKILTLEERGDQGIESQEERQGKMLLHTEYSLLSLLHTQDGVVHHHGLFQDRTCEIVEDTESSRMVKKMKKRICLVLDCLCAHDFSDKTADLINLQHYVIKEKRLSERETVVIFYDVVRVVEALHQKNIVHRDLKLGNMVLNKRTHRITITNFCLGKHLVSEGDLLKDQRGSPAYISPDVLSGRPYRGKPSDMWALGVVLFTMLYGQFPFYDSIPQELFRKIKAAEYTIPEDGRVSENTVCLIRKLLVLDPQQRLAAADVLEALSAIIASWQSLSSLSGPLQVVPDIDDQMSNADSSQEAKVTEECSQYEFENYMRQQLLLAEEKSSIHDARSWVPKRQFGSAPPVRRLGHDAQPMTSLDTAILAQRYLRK
UniProt Q8WUJ0: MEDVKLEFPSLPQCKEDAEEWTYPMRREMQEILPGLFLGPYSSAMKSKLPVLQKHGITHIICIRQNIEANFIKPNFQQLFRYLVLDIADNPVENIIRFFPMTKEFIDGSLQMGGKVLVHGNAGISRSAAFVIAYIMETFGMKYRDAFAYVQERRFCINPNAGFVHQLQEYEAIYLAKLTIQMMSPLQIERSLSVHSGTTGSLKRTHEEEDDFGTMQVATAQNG
UniProt Q8N2H4: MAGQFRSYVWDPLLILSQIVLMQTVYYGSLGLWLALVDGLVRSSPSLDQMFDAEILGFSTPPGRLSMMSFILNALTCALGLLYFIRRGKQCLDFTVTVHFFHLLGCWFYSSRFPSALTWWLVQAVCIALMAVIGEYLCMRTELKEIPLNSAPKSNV
UniProt Q9NYJ8: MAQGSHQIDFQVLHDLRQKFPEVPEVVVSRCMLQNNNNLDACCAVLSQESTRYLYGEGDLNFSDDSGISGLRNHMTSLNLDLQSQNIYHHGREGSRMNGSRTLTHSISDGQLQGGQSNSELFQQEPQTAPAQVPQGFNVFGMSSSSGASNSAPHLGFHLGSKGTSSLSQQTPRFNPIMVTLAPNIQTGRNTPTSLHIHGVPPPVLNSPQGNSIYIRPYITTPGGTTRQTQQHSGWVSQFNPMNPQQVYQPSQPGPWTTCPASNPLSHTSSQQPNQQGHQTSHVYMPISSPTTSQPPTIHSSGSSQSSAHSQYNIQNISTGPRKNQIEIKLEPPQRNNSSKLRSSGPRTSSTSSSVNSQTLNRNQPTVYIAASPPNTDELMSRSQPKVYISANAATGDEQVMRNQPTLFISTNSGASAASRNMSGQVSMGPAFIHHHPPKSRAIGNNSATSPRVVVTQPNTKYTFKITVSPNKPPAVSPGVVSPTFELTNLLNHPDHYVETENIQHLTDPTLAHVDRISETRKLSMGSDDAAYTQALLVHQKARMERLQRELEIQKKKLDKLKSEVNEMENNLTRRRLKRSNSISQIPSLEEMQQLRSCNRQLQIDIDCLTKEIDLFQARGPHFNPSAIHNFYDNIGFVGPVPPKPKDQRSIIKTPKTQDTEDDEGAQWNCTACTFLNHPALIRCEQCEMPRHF
UniProt Q15543, whole entry, looked up: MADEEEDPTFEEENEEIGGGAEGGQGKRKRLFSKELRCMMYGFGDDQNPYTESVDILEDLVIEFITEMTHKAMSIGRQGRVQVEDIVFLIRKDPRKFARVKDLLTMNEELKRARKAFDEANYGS
UniProt O15056: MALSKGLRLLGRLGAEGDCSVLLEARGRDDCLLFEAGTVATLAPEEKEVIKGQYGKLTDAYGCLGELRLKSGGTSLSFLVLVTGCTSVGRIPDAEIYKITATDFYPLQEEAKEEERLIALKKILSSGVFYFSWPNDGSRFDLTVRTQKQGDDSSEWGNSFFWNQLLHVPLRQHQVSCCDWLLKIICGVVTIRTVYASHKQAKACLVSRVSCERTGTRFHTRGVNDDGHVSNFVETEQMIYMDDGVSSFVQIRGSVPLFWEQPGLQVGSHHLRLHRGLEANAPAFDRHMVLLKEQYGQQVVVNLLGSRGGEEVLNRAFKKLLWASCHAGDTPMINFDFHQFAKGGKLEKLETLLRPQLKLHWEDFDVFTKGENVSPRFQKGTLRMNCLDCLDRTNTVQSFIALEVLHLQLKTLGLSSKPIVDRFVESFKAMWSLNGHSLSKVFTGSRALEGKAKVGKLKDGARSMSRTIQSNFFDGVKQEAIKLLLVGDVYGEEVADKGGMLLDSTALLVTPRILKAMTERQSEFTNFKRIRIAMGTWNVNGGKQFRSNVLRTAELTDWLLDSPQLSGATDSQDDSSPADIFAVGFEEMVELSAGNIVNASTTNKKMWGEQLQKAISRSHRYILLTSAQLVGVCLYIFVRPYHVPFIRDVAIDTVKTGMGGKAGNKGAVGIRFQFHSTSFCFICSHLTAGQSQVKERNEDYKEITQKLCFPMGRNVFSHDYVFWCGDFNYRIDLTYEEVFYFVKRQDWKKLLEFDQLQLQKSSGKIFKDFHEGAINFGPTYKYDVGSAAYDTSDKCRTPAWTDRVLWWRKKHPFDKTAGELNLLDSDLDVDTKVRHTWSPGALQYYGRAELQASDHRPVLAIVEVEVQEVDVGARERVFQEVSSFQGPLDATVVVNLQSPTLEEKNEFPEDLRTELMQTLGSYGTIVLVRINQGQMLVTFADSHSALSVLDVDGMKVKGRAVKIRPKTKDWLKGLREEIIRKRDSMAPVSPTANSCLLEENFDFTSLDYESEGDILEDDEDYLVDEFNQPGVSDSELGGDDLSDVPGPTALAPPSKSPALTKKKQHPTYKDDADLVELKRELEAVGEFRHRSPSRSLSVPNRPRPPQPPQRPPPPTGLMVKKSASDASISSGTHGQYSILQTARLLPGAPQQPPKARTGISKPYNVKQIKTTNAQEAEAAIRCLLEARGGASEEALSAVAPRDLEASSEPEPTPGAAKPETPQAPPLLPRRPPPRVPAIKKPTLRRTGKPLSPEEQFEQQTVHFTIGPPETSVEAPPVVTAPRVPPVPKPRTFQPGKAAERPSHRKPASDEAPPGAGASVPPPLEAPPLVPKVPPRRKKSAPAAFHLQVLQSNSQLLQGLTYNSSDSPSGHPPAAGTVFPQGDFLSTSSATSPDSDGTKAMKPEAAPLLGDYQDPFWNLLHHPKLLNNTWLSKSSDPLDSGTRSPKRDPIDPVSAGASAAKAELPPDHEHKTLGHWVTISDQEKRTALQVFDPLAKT
UniProt P49888: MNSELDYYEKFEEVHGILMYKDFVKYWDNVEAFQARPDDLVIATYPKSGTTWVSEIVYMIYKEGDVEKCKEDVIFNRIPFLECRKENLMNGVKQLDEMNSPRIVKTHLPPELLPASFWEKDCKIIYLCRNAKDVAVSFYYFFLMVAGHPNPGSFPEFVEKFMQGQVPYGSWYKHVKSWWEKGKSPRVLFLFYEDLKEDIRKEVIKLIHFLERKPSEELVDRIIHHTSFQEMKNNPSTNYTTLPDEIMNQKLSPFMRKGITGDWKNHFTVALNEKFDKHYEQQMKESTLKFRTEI
UniProt O95359: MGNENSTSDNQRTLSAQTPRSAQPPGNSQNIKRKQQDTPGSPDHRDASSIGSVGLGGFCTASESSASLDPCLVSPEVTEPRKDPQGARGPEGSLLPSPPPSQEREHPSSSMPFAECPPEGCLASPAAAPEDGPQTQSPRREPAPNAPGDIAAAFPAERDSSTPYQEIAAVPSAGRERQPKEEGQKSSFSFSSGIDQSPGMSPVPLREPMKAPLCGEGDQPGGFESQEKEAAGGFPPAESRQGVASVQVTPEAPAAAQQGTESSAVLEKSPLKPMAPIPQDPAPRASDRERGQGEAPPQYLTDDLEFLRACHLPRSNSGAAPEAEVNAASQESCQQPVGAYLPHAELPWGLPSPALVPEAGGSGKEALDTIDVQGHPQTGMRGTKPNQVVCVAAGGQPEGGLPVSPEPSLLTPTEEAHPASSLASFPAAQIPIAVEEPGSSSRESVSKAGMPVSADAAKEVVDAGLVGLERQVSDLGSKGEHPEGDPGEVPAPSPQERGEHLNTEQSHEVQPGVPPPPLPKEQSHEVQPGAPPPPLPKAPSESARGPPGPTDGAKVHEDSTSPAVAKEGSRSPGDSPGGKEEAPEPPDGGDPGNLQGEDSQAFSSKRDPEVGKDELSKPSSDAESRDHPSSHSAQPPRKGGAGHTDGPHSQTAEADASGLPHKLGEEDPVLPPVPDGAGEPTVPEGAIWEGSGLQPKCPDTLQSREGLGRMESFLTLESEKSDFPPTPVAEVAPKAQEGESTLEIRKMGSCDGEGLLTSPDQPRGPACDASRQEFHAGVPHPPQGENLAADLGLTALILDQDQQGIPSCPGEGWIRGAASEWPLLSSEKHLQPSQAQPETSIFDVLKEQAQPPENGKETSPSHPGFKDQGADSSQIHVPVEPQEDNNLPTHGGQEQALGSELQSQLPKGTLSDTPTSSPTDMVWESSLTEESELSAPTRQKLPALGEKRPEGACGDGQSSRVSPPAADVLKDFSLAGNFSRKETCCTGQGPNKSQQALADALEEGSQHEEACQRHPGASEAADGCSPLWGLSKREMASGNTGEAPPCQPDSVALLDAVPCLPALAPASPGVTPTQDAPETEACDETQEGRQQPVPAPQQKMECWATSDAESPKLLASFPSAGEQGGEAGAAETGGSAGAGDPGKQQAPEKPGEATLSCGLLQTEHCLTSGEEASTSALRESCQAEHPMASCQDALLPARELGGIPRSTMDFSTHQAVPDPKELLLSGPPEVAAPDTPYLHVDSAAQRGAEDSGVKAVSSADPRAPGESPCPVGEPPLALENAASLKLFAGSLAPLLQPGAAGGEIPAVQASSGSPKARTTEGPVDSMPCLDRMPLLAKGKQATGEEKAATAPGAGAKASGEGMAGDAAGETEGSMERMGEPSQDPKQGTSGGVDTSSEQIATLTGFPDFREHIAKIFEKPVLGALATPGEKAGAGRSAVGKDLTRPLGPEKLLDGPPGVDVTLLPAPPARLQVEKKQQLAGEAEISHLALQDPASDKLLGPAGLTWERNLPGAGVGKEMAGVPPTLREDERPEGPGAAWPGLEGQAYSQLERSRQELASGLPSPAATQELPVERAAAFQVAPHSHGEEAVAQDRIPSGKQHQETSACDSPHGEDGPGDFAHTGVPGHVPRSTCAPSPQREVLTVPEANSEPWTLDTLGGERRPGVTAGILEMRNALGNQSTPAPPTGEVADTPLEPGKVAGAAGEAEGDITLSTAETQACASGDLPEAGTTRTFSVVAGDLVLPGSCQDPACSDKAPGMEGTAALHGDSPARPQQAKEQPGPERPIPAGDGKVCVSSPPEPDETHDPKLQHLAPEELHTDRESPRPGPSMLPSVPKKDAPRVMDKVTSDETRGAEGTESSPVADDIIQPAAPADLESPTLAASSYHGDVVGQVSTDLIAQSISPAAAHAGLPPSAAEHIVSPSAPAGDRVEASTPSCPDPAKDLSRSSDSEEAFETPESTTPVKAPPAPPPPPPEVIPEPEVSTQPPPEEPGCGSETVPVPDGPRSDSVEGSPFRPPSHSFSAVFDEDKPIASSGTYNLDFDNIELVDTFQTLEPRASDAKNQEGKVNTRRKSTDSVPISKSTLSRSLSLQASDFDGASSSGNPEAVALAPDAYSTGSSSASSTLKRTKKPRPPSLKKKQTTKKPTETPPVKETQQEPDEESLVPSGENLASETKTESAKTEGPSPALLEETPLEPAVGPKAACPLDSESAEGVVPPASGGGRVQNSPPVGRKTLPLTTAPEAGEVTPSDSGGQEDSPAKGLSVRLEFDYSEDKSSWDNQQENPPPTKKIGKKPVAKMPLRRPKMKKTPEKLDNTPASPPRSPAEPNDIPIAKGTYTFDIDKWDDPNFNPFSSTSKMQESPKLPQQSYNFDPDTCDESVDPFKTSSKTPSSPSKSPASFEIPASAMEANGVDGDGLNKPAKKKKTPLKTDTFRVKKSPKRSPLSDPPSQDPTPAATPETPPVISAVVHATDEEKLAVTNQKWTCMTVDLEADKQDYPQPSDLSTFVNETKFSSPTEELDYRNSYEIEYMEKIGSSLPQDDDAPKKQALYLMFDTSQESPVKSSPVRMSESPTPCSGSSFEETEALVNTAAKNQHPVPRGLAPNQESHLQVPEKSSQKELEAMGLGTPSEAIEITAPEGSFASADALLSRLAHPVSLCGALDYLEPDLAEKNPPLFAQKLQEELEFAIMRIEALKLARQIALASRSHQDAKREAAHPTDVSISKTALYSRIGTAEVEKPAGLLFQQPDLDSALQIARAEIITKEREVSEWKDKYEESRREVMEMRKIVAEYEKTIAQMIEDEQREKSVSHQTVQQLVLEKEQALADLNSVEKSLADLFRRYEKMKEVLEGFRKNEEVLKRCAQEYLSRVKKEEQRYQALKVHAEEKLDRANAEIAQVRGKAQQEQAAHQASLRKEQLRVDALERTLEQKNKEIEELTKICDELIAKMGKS
UniProt Q01995: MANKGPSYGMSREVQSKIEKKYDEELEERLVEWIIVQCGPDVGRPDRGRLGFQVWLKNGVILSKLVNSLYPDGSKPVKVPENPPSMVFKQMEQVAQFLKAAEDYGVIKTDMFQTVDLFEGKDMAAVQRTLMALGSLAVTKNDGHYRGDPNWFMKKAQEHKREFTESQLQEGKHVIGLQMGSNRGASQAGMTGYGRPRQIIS

Columns and labels:
Experiment in all cases: log2 fold change, soluble protein after heating vs DMSO (PISA); higher = thermal stabilisation; K562 cells, 10 uM, 30 min; active = over 0.2 and 3.5 SD of the protein, either way, in both replicates (recomputed)
idasanutlin = compound: COc1cc(C(=O)O)ccc1NC(=O)[C@@H]1N[C@@H](CC(C)(C)C)[C@](C#N)(c2ccc(Cl)cc2F)[C@H]1c1cccc(Cl)c1F [idasanutlin]
Summary of the method: (§1)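 K562 cells at 2×10^6 cells/mL were treated with 10 μM compound for 30 min. Aliquots were heated for 3 min across 48°C-58°C, pooled, and extracted in PBS with 0.5% NP-40 at 4°C; soluble protein was the supernatant after 21,000xg for 90 min. Soluble protein was quantified by TMTpro 16plex LC-MS/MS with channel sums equalised, and reported as log2 fold change in thermal stability against DMSO controls, with values from duplicates.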

[1] = compound: COc1cc2nc(-c3cc(F)ccc3O)nc(N[C@@H]3CNC[C@H]3C(C)(C)O)c2cc1OC
Summary of the method: as §1

lapatinib = compound: CS(=O)(=O)CCNCc1ccc(-c2ccc3ncnc(Nc4ccc(OCc5cccc(F)c5)c(Cl)c4)c3c2)o1 [lapatinib]
Summary of the method: as §1

[2] = compound: COC1=CC=C(C=C1)CN2C=CC3=C2C=C(C=C3)C(=O)NO
Summary of the method: as §1

pictilisib = compound: CS(=O)(=O)N1CCN(Cc2cc3nc(-c4cccc5[nH]ncc45)nc(N4CCOCC4)c3s2)CC1 [pictilisib]
Summary of the method: as §1

zotarolimus = compound: CO[C@H]1C[C@@H]2CC[C@@H](C)[C@@](O)(O2)C(=O)C(=O)N2CCCC[C@H]2C(=O)O[C@H]([C@H](C)C[C@@H]2CC[C@H](n3cnnn3)[C@H](OC)C2)CC(=O)[C@H](C)/C=C(\C)[C@@H](O)[C@@H](OC)C(=O)[C@H](C)C[C@H](C)/C=C/C=C/C=C/1C [zotarolimus]
Summary of the method: as §1

alisertib = compound: COc1cc(Nc2ncc3c(n2)-c2ccc(Cl)cc2C(c2c(F)cccc2OC)=NC3)ccc1C(=O)O [alisertib]
Summary of the method: as §1

gefitinib = compound: COc1cc2ncnc(Nc3ccc(F)c(Cl)c3)c2cc1OCCCN1CCOCC1 [gefitinib]
Summary of the method: as §1

[3] = compound: COc1cccc2cc(-c3nc([C@H]4CC[C@H](C(=O)O)CC4)n4ncnc(N)c34)[nH]c12
Summary of the method: as §1

filanesib = compound: CON(C)C(=O)N1N=C(c2cc(F)ccc2F)S[C@@]1(CCCN)c1ccccc1 [filanesib]
Summary of the method: as §1

Measured: log2 fold change

STK40 isoform 4 (UniProt Q8N2I9)
inactive: idasanutlin -0.139 | [1] 0.094 | lapatinib -0.181

TBC1D10A (UniProt Q9BXI6)
inactive: [2] 0.029 | [1] 0.044 | lapatinib 0.106 | pictilisib -0.006

STK35 (UniProt Q8TDR2)
inactive: zotarolimus 0.043 | idasanutlin 0.01 | alisertib -0.148 | [1] 0.12 | gefitinib -0.009 | [3] -0.167 | lapatinib -0.135

STXBP5L (UniProt Q9Y2K9)
inactive: [2] 0.299 | filanesib -0.133 | zotarolimus 0.027 | [1] 0.165 | gefitinib -0.016 | lapatinib -0.027 | pictilisib -0.442

TAF5 (UniProt Q15542)
inactive: [2] 0.022 | pictilisib 0.158

STRN3 isoform 2 (UniProt Q13033)
inactive: [2] -0.01 | zotarolimus 0.019 | idasanutlin -0.194 | alisertib -0.081 | [1] -0.03 | gefitinib 0.031 | [3] -0.012 | lapatinib -0.019 | pictilisib 0.285

STYX (UniProt Q8WUJ0)
inactive: pictilisib 0.121

TAF12 (UniProt Q16514)
inactive: [2] 0.035 | filanesib -0.073 | alisertib -0.027 | [1] 0 | gefitinib 0.015 | [3] -0.019 | lapatinib 0.048 | pictilisib 0.049

SVBP (UniProt Q8N300)
inactive: filanesib 0.009 | zotarolimus 0.003 | idasanutlin 0.056 | alisertib 0.13 | [1] 0.06 | [3] 0.075 | lapatinib 0.043 | pictilisib 0.019

TATDN1 isoform 2 (UniProt Q6P1N9)
inactive: [1] -0.303 | lapatinib -0.307

SYTL4 (UniProt Q96C24)
inactive: filanesib 0.031 | zotarolimus -0.006 | idasanutlin 0.052 | alisertib -0.217 | [1] 0.049 | gefitinib -0.206 | [3] -0.107 | lapatinib -0.093

SYS1 (UniProt Q8N2H4)
inactive: [1] 0.06 | lapatinib 0.093 | pictilisib -0.007

Random excerpt: 3 entries already listed.
SYS1 (UniProt Q8N2H4)
inactive: [1] 0.06 | lapatinib 0.093 | pictilisib -0.007

SVBP (UniProt Q8N300)
inactive: filanesib 0.009 | zotarolimus 0.003 | idasanutlin 0.056 | alisertib 0.13 | [1] 0.06 | [3] 0.075 | lapatinib 0.043 | pictilisib 0.019

STYX (UniProt Q8WUJ0)
inactive: pictilisib 0.121

The list goes on:

TAB2 (UniProt Q9NYJ8)
inactive: filanesib -0.202

TAF13 (UniProt Q15543)
inactive: filanesib 0.052 | alisertib -0.052 | [3] -0.017 | pictilisib 0.289

STS (UniProt P08842)
inactive: idasanutlin 0.046 | [1] -0.099 | lapatinib -0.024

SUPT7L (UniProt O94864)
inactive: [2] -0.019 | alisertib 0.006 | gefitinib -0.195 | [3] -0.011

TASP1 (UniProt Q9H6P5)
inactive: alisertib 0.116 | gefitinib -0.179 | [3] -0.149

STRIP2 (UniProt Q9ULQ0)
inactive: filanesib -0.137 | zotarolimus 0.001 | idasanutlin -0.143 | alisertib -0.006 | [1] 0.006 | gefitinib 0.007 | [3] -0.057 | lapatinib 0.035 | pictilisib 0.032

SYNJ2 (UniProt O15056)
inactive: [2] 0.038 | filanesib 0.09 | idasanutlin 0.025 | alisertib -0.031 | gefitinib 0.076 | [3] -0.18 | pictilisib -0.079

TBC1D12 (UniProt O60347)
inactive: zotarolimus 0.099 | idasanutlin 0.037 | alisertib 0.153 | [1] -0.036 | [3] -0.01 | lapatinib 0.052

TAF11 (UniProt Q15544)
inactive: filanesib 0.176 | zotarolimus -0.004 | idasanutlin 0.116 | alisertib -0.179 | [1] -0.089 | [3] -0.095 | lapatinib -0.01 | pictilisib -0.001

SYK (UniProt P43405)
inactive: [2] 0.085 | zotarolimus 0.066 | idasanutlin 0.25 | [1] 0.204 | lapatinib 0.06

SUSD1 isoform 2 (UniProt Q6UWL2)
inactive: [2] -0.013 | zotarolimus -0.021 | idasanutlin 0.076 | [1] 0.06 | gefitinib -0.11 | lapatinib -0.109 | pictilisib -0.028

STK36 (UniProt Q9NRP7)
inactive: idasanutlin 0.093 | alisertib -0.375 | [1] 0.42 | gefitinib 0.09 | [3] 0.039 | lapatinib -0.142 | pictilisib -0.043

TAZ (UniProt Q16635)
inactive: [1] 0.541 | lapatinib -0.366

TAF6L (UniProt Q9Y6J9)
inactive: filanesib 0.177 | zotarolimus 0.049 | idasanutlin 0.001 | alisertib -0.13 | [1] 0.166 | gefitinib 0.054 | [3] 0.038 | lapatinib -0.133 | pictilisib 0.166

TADA1 (UniProt Q96BN2)
inactive: [1] 0.071 | lapatinib 0.23

SUFU (UniProt Q9UMX1)
inactive: idasanutlin -0.051

SULT1E1 (UniProt P49888)
inactive: gefitinib -0.102 | pictilisib -0.144

SUGT1 isoform 2 (UniProt Q9Y2Z0)
inactive: [2] -0.151 | alisertib -0.011 | [1] 0.186 | [3] 0.137 | lapatinib 0.172

TAF4 (UniProt O00268)
inactive: [2] 0 | filanesib 0.182 | idasanutlin 0.047 | alisertib -0.27 | [1] 0.059 | [3] 0.08 | lapatinib 0.23 | pictilisib -0.02

TACC2 (UniProt O95359)
inactive: filanesib -0.107 | zotarolimus -0.003 | idasanutlin -0.042 | alisertib 0.1 | [1] 0.01 | gefitinib -0.027 | [3] 0.011 | lapatinib 0.011 | pictilisib 0.046

SYP (UniProt P08247)
inactive: [2] -0.064 | zotarolimus -0.124 | idasanutlin 0 | alisertib -0.008 | [1] -0.013 | gefitinib 0.039 | [3] 0.129 | lapatinib -0.07 | pictilisib 0.016

TAOK2 (UniProt Q9UL54)
inactive: [2] 0.189 | alisertib 0.107 | [1] -0.02 | gefitinib -0.095 | [3] 0.003 | lapatinib 0.022 | pictilisib 0.003

SUZ12 (UniProt Q15022)
inactive: [2] -0.171 | idasanutlin 0.012 | alisertib 0.087 | [1] -0.037 | gefitinib 0.033 | [3] 0.065 | lapatinib -0.013

STON2 isoform 3 (UniProt Q8WXE9)
inactive: [2] 0.001 | gefitinib -0.024 | pictilisib -0.025

TAGLN (UniProt Q01995)
inactive: [2] -0.011 | filanesib -0.339 | [1] 0.901 | lapatinib -0.2 | pictilisib -0.239
